Results published in paper PMC7291146.
No constants are given. Whether binding was seen depends on the method and setting. Binding seen in cells or lysates may run through a third protein. Where a sequence is shown, tags or fusion partners need not be part of it.

Biological target: myc-AdipoR1 (rat adiponectin receptor-1) (rat)
Assay: co-IP; H9C2 cardiomyoblasts transiently expressing myc-AdipoR1 and FLAG-tagged partners; lysis in 50 mmol/L Tris pH 7.5, 0.5% deoxycholic acid, 0.5% Triton X-100, 10 mmol/L EDTA; 200 ug lysate; myc antibody on protein A/G agarose or FLAG antibody on Dynabeads, 4 °C overnight, five washes; detection with FLAG or myc antibodies

binding: no binding
B1: FLAG-gC1qR (rat globular C1q receptor) (protein, UniProt O35796 72-279)
chain: LHTEGDKAFVEFLTDEIKEEKKIQKHKSLPKMSGDWELEVNGTEAKLLRKVAGEKITVTFNINNSIPPTFDGEEEPSQGQKAEEQEPELTSTPNFVVEVTKTDGKKTLVLDCHYPEDEIGHEDEAESDIFSIKEVSFQTTGDSEWRDTNYTLNTDSLDWALYDHLMDFLADRGVDNTFADELVELSTALEHQEYITFLEDLKSFVKSQ
